Experimental findings from US20240336588A1, “COMPOSITIONS AND METHODS FOR ANTIOXIDANT AND ANTI-INFLAMMATORY THERAPEUTICS” (AVANTI BIOSCIENCES INC., priority 2021, published 2024) are described below.

Protein sequences, listed by entry. Tags and fused reporters are not part of them. Chains listed by the source or under a name are the forms on record and can include a tag or linker.
UniProt Q9Y463, other isoform, or with tags, fused parts or gaps: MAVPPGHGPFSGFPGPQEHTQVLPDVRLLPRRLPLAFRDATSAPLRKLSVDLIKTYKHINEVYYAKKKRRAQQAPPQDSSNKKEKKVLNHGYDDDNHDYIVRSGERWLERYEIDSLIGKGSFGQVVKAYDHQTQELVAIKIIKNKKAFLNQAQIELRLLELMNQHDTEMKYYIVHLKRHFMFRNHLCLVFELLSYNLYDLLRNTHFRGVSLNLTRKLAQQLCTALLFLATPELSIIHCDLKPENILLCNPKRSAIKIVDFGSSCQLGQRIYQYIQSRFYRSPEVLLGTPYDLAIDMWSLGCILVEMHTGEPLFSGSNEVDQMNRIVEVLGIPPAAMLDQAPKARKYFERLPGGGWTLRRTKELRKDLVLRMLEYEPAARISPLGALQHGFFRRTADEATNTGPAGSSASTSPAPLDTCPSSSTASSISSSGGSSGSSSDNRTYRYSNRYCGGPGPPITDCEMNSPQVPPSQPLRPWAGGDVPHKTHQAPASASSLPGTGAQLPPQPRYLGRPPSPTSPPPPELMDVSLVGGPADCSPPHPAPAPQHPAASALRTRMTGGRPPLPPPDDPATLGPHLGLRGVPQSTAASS

In this test the target is DYRK1B (GST tagged full length human DYRK1B isoform p65) (Homo sapiens (Human), UniProt Q9Y463). The test is described as follows: DYRK1B ELISA assay. Format: biochemical. Particulars: 70 ng GST-DYRK1B, kinase reaction time 60 min. As for the experimental part: DYRK1A assay. […] After blocking, wells were washed extensively with dilution buffer before subjecting to phosphorylation. […] At the end point, wells were washed with ˜350 μl dilution buffer three times to terminate the reaction. […] Each point was run in quadruplicate with DMSO present in all assays at 0.2% final concentration. […] HT-PRD phosphorylation was subsequently determined by the sandwich antibody staining protocol, first with 100 μl mouse mAb 3D3 specific for detecting DYRK1A-phosphorylated PRD (60 min at room temperature) then with 100 μl alkaline phosphatase (AP)-linked anti-mouse secondary antibody (60 min at room temperature), followed by colorimetric reaction with 100 μl PNPP solution (PNPP substrate tablet, Thermo Fisher). […] The readings were then recorded for subsequent IC50 calculation. The DYRK1A assay protocol can also support DYRK1B and DYRK2 phosphorylation reactions in the enzyme concentration-dependent manner; therefore, the method was adapted for measuring the activity of candidate compounds against DYRK1B and DYRK2. […]
Data transformation, calculation, plotting, curve fitting, and IC 50 calculation were performed in KaleidaGraph (http://www.synergy.com/wordpress_650164087; Mac version 4.1). Data was corrected for background (readings from wells with only PNPP) before subsequent manipulations. […]

Turning to `O=C(O[C@@H]1Cc2c(O)cc(O)cc2O[C@@H]1c1cc(O)c(O)c(O)c1)c1cc(O)c(O)c(O)c1` [Compound 3, (2R,3R)-5,7-dihydroxy-2-(3,4,5-trihydroxyphenyl)chroman-3-yl 3,4,5-trihydroxybenzoate, reference compound], the IC50 – broadly, the concentration needed to halve the response being measured – is over 100 nM.
Consider `O=C(O[C@@H]1Cc2c(O)cc(O)cc2O[C@H]1c1cc(O)c(O)c(O)c1)c1cc(O)c(O)c(O)c1` [Compound 4, (2S,3R)-5,7-dihydroxy-2-(3,4,5-trihydroxyphenyl)chroman-3-yl 3,4,5-trihydroxybenzoate], for which the IC50 is over 100 nM.
